In paper PMC13096421 one finds binding data, which are given here for two substances.

Protein sequences, listed by entry. Tags and fused reporters are not part of them. Residues count along the entry.
UniProt Q00960, residues 27-1482: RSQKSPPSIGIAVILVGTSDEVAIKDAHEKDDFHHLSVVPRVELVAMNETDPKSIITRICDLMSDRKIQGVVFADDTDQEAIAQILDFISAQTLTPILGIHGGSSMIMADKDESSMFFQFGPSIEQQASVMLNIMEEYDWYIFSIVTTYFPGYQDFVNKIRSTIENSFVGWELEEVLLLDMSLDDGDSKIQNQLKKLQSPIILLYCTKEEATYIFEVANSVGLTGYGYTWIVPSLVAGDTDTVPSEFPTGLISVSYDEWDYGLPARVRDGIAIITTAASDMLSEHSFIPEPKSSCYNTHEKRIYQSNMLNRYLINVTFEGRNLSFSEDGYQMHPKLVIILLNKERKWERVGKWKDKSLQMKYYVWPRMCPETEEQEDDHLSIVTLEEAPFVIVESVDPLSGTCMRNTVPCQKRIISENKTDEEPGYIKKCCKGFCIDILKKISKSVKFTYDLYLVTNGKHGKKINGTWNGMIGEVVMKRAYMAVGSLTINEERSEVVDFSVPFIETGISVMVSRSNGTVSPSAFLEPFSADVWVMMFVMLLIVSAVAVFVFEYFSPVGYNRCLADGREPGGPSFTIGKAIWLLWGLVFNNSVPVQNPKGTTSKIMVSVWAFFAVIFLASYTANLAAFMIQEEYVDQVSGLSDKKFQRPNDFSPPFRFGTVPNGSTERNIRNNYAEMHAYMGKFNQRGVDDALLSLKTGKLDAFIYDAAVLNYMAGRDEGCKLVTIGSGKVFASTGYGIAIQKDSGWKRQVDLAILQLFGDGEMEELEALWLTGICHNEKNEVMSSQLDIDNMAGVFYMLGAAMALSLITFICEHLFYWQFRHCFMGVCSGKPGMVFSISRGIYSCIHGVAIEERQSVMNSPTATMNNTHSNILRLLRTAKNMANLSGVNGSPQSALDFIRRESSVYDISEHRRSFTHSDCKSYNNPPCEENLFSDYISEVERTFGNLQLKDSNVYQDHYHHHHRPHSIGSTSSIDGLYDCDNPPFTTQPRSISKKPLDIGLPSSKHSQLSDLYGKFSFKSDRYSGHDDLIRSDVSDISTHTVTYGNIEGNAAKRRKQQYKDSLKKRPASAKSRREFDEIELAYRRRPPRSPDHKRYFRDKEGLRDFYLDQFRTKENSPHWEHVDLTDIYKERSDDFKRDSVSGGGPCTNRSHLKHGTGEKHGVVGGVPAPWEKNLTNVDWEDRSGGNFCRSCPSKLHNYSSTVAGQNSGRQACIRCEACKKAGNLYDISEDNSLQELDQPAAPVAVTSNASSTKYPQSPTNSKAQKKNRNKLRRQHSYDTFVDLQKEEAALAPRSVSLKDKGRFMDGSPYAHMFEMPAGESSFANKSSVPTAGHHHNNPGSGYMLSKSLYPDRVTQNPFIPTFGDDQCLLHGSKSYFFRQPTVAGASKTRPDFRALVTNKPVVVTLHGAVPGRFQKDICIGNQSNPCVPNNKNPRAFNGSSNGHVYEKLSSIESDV
UniProt P31422, residues 23-879: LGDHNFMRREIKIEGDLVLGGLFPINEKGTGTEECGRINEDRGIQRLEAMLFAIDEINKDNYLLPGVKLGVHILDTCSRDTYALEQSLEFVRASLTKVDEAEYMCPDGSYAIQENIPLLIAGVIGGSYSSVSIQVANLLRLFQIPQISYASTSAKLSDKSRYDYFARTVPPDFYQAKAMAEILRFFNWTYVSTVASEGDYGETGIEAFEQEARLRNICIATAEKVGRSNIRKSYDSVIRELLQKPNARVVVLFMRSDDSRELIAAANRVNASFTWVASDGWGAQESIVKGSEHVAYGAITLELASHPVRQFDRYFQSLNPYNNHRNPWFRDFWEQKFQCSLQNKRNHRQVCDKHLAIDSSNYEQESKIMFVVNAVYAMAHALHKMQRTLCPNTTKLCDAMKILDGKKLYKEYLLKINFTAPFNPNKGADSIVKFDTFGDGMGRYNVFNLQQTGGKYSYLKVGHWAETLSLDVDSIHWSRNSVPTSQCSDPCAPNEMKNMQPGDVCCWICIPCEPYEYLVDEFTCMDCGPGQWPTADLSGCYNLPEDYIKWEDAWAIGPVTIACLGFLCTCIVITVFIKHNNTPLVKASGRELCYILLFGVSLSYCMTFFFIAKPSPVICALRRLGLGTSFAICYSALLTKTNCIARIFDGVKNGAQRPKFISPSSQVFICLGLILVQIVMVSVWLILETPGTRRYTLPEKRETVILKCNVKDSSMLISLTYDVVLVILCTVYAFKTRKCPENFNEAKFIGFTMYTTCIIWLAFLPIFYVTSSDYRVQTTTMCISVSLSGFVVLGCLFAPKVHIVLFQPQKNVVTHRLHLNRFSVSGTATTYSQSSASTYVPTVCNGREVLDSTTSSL
UniProt P31424, residues 21-1203: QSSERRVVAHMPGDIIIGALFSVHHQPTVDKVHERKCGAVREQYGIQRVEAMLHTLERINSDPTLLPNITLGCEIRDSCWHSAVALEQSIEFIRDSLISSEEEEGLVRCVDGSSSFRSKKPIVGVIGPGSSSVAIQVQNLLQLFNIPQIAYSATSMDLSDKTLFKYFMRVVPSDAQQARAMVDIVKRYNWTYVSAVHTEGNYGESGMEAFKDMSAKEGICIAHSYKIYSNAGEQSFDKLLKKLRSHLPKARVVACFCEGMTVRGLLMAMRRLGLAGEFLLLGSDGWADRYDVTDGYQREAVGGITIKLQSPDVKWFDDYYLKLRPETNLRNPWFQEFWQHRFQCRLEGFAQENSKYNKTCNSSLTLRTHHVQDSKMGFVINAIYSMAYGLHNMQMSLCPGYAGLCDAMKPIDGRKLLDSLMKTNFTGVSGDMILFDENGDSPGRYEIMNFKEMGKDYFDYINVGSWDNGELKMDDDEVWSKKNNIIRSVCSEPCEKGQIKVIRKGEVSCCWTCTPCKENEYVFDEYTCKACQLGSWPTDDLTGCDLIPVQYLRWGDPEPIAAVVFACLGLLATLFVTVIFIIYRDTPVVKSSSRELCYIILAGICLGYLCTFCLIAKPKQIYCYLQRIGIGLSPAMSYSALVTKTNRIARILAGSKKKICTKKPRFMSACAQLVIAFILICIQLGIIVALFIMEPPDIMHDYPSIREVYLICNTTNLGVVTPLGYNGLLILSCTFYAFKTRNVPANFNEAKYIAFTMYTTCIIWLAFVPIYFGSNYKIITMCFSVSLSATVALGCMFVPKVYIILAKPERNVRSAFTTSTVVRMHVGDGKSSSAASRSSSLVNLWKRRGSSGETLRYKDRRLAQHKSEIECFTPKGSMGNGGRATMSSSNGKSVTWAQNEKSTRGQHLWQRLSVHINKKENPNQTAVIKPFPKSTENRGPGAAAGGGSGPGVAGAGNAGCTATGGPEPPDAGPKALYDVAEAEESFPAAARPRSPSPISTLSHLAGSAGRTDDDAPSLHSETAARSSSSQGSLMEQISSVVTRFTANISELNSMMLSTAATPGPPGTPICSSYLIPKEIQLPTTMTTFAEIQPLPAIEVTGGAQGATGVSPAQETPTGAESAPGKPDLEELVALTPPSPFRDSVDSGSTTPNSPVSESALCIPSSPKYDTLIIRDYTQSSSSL
UniProt P15385: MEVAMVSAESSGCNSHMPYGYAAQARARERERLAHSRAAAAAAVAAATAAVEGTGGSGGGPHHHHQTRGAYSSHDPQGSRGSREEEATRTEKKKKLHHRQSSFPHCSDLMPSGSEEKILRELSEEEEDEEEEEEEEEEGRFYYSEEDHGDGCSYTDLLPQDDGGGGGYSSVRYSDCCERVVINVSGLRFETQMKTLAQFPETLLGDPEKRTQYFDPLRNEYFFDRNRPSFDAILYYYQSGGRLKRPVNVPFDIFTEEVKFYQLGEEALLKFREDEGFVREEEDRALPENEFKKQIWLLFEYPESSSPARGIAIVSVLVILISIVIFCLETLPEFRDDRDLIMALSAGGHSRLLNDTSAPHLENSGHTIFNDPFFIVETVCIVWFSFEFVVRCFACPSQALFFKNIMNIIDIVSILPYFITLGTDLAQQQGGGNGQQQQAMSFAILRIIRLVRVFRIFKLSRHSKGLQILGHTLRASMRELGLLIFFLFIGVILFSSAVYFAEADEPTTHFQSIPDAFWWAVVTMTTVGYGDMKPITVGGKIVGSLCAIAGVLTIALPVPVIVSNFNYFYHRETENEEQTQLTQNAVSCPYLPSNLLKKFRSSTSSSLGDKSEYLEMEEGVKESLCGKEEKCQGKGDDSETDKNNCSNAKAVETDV
UniProt Q08460: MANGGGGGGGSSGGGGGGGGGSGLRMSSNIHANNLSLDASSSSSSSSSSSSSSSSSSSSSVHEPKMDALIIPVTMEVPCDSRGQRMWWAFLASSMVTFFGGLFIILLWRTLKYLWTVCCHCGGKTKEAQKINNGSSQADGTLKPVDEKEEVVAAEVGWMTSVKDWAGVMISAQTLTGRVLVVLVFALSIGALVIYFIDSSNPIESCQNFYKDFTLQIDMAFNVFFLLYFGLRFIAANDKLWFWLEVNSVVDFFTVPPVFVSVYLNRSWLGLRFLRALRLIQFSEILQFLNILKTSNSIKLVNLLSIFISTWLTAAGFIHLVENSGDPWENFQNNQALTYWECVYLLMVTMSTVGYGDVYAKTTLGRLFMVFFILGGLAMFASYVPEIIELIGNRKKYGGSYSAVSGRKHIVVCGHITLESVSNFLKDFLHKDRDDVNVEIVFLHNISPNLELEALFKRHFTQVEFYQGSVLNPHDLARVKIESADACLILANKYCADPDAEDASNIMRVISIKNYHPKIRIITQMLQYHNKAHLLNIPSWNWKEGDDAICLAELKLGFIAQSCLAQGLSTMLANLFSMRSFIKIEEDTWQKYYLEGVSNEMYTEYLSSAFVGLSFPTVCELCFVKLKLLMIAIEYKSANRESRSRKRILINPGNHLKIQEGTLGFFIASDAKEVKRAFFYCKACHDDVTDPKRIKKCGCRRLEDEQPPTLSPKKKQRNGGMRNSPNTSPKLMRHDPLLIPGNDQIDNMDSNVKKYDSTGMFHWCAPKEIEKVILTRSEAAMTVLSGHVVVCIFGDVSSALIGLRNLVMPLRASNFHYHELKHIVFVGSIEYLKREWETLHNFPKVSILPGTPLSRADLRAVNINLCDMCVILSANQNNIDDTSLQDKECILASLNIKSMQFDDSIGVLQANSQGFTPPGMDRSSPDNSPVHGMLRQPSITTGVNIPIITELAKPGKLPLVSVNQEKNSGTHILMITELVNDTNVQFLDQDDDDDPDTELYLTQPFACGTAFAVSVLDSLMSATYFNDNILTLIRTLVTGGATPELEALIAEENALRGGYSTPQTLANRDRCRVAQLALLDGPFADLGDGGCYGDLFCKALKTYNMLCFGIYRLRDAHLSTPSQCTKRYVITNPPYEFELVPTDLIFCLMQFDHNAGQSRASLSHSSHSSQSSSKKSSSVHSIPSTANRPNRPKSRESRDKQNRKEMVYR

Experiment [1] deals with Grin2b (rat (endogenous in hippocampus)) (UniProt Q00960). Description: co-IP; endogenous bait immunoprecipitated with antibody-crosslinked beads from rat brain (hippocampus) homogenate, same protocol as for LC-MS, eluted in Laemmli buffer, immunoblot.
Experiment [2] concerns the target rat Grm3 with a C-terminal Myc tag (rat) (UniProt P31422). Description: co-IP; HEK or N2A cells transfected with Myc-tagged receptor and untagged BK-alpha; lysis in 4 mM HEPES pH 7.4, 200 mM NaCl, 0.5% NP-40, 0.5% Triton; Myc agarose beads; immunoblot with anti-Kcnma1 and anti-Myc.
Experiment [3] deals with rat Grm5 with a C-terminal Myc tag (rat) (UniProt P31424). The experiment is described as above.

These are yes or no findings as the source states them, for the method shown. In cells and extracts the contact can be indirect. Some results given as binding are weak or reduced against the parent protein; the word gives no strength.

“Potassium voltage-gated channel subfamily A member 4 (Kcna4) (from UniProt P15385 1-655)”: the binding entry in experiment [1] is “binds”.

Take “untagged mouse BK-alpha (from UniProt Q08460 1-1209)”: the binding result is on record as “no binding” in experiment [2] and “binds” in experiment [3].
